Some of the results follow.
Tests used:
Experiment in all cases: log2 fold change, soluble protein after heating vs DMSO (PISA); higher = thermal stabilisation; K562 cells, 10 uM, 30 min; active = over 0.2 and 3.5 SD of the protein, either way, in both replicates (recomputed)
[1] = compound: NC(=O)Nc1cc(-c2cccc(F)c2)sc1C(=O)N[C@H]1CCCNC1
Summary of the method: (§1)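 K562 cells (2×10^6 cells/mL) were treated with 10 μM compound for 30 min, and aliquots were heated for 3 min over 48°C-58°C. Pooled aliquots were extracted in PBS with 0.5% NP-40 at 4°C, and the supernatant after 21,000xg for 90 min was measured by TMTpro 16plex LC-MS/MS with channel sums equalised. Reported thermal stability, relative to control samples and from duplicates, is a log2 fold change.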

Sequences of proteins named here, by UniProt entry; tags and fusion partners are left off. A change or cut given only in a name is not applied to a line headed by its entry.
UniProt Q7Z5U6: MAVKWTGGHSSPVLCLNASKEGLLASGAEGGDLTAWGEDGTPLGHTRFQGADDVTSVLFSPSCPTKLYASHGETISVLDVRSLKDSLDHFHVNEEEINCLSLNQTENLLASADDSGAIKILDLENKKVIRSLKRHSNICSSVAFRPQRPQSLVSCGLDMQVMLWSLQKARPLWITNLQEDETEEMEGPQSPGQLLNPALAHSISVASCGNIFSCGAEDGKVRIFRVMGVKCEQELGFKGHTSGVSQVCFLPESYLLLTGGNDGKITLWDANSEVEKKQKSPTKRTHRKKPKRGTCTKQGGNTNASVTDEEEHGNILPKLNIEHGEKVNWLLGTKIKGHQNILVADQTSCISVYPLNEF
UniProt Q9H7M9, whole entry, looked up: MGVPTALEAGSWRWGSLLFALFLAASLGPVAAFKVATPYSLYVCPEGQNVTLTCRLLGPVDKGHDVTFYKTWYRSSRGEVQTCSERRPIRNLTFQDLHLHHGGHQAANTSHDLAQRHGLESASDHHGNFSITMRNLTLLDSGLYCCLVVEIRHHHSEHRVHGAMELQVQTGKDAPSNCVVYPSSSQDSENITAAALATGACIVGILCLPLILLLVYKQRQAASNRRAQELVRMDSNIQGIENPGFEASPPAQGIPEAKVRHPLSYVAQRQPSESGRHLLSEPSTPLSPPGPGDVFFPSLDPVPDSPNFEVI

[2] = compound: NC(=O)c1cnc(N[C@@H]2CCCC[C@@H]2N)nc1Nc1cccc(-n2nccn2)c1
Summary of the method: as §1

[3] = compound: NC1(c2ccc(-c3nc4ccn5c(=O)[nH]nc5c4cc3-c3ccccc3)cc2)CCC1
Summary of the method: as §1

[4] = compound: NCC(=O)Nc1ccc(-n2nc(C(F)(F)F)cc2-c2ccc3c(ccc4ccccc43)c2)cc1
Summary of the method: as §1

entinostat = compound: Nc1ccccc1NC(=O)c1ccc(CNC(=O)OCc2cccnc2)cc1 [entinostat]
Summary of the method: as §1

vorinostat = compound: O=C(CCCCCCC(=O)Nc1ccccc1)NO [vorinostat]
Summary of the method: as §1

citarinostat = compound: O=C(CCCCCCNC(=O)c1cnc(N(c2ccccc2)c2ccccc2Cl)nc1)NO [citarinostat]
Summary of the method: as §1

silmitasertib = compound: O=C(O)c1ccc2c(c1)nc(Nc1cccc(Cl)c1)c1ccncc12 [silmitasertib]
Summary of the method: as §1

[5] = compound: O=C1NC(=O)C(c2cnc3ccccn23)=C1c1cn2c3c(cc(F)cc13)CN(C(=O)N1CCCCC1)CC2
Summary of the method: as §1

[6] = compound: c1cc(OCCN2CCCCC2)cc(-c2n[nH]c3ccc(-c4nnc[nH]4)cc23)c1
Summary of the method: as §1

Measured: log2 fold change

VPS26C (UniProt O14972)
inactive: [1] -0.063 | [2] 0.028 | [3] -0.085 | [4] -0.123 | entinostat 0.058 | vorinostat 0.141 | citarinostat 0.111 | silmitasertib 0.031 | [5] 0.023 | [6] -0.019

WARS1 (UniProt G3V277)
inactive: [1] 0.029 | [2] -0.52 | [3] -0.131 | [4] -0.302 | entinostat 0.025 | vorinostat -0.047 | silmitasertib 0.001

WDR53 (UniProt Q7Z5U6)
inactive: [1] -0.194 | [2] 0.002 | [3] -0.057 | [4] -0.058 | entinostat 0.097 | vorinostat 0.019 | citarinostat 0.072 | silmitasertib -0.036 | [6] 0.039

VSIR (UniProt Q9H7M9)
inactive: [1] 0.002 | [3] -0.011 | [4] 0.027 | entinostat -0.05 | vorinostat -0.097 | citarinostat 0.029 | silmitasertib -0.053 | [5] 0.022 | [6] 0.013

From the supplement of paper PMC10849652
